Data as given in patent US4826982A, “Quinolonecarboxylic acid derivatives” (Kyorin Pharmaceutical Co., Ltd., priority 1985, dated 1989).
≈ marks a conversion by molar mass, not a printed value.

System: F. varium KYA 8501
Test: Antibacterial spectrum, MIC
Type: cell-based
Settings: Fusobacterium varium, KYA8501

O=C(O)c1cn(C2CC2)c2cc(N3CCNCC3)c(F)cc2c1=O [CPFX, ciprofloxacin, reference compound]
MIC: 25 µg/mL (≈ 75.4 µM)
